Source: patent US9808434B2, “Compound for treating cancer and diabetes” (CITY OF HOPE, priority 2011, dated 2017)

How the values were obtained:
[1] = tested on: B16-F0 melanoma cells; test: RNA-sequence differential gene expression, B16-F0; type: cell-based, mouse; details: 5 μM
[2] = tested on: hepatic genes; test: Liver gene expression of HFD obese and db/db mice; type: in vivo, mouse; details: RNA sequencing
Description: Total RNA was isolated from livers of lean, vehicle or COH-SR4-treated HFD mice using standard protocols and subjected to quantitative RT-PCR using primers for key genes associated with lipid and fatty acid synthesis (Acaca, Pparg, Acly, Scd1, Srebf1, Hmgcr, Cpt1, Fasn) and gluconeogenesis (G6pc, Pck1). Livers of db/+ and db/db mice treated with vehicle or COH-SR4 were used for RNA-seq analysis. RNA isolation, purification, sequencing, library preparation and read alignments were done at the City of Hope Functional Genomics Core facility. Differential gene expression was identified from standard Partek workflow (Partek Genomics Suite v6.6, Partek, Inc) using ANOVA, with step-up FDR multiple testing correction p-value of <0.05 and 1.5× fold change. […] Databases utilized included GOTERM_BP_FAT (biological process) and Kyoto Encyclopedia of Genes and Genomes (KEGG_PATHWAY).
Total RNA was isolated from liver of control animals and HFD obese or db/db mice treated with vehicle or COH-SR4 (as described in Example 35). Relative mRNA expression (mean±SEM) of lipogenic and gluconeogenic genes were determined using real time RT-PCR and quantified using the comparative Ct method (FIG. 86A, ^#P<0.05, ^##P<0.01 vs. HFD). […] Key hepatic genes associated with lipid/fatty acid synthesis and glucose and amino acid metabolism regulated by COH-SR4 in db/db mice are shown in FIG. 86D.

`O=C(Nc1cc(Cl)cc(Cl)c1)Nc1cc(Cl)cc(Cl)c1` [COH-SR4, 1,3-bis(3,5-dichlorophenyl) urea] was tested, and the differentially expressed genes ([1]; 4 h) was 773 genes, the downregulated genes ([1]; 4 h) was 184 genes and the upregulated genes ([1]; 4 h) was 589 genes. For the same compound, the differentially expressed genes ([1]; 24 h) was 3828 genes, the down-regulated genes ([1]; 24 h) was 1865 genes and the upregulated genes ([1]; 24 h) was 1963 genes. For the same compound, the “differentially expressed genes in liver” value [2] was 642 genes, the “downregulated genes in liver” value [2] was 425 genes and the “upregulated genes in liver” value [2] was 217 genes.
